# Assay results: PubChem BioAssay AID485314 (National Center for Advancing Translational Sciences (NCATS), 2010)
# In all, about 340,000 compounds went through this assay and about 4,500 (1.3%) were called active. The shares of active, inactive and inconclusive entries below differ from those in the screen. Calls come from the whole dose curve; as a rule, active = well fitted inhibition curve with a large enough effect; inconclusive = small, poorly fitted or top-dose-only effect, or another doubt; inactive = no such curve, though single readings can be large or run the other way. Where the call is inconclusive, the potency comes from a doubtful curve fit.
# Target: DNA polymerase beta (Homo sapiens) (UniProt P06746)
# Assay: qHTS Assay for Inhibitors of DNA Polymerase Beta
# Conditions: Pol beta primer extension/strand displacement, fluorescence kinetic; activity change, negative = inhibition: at 114 µM (top of the series)
# How it was run: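 Pol beta (10 nM) and compounds were preincubated 15 min at room temperature, then 50 nM substrate (final) started primer extension/strand displacement. Reads were taken at 0 and 10 min; concentration-response data were fitted to a four-parameter Hill equation.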
# % is set by controls: 0 for no effect and ±100 for the full control effect; potency is the fitted concentration of half-maximal effect.
SMILES,Potency,"activity change, negative = inhibition"
CC1Sc2ccc(S(=O)(=O)N3CCC(C(N)=O)CC3)cc2NC1=O (centres undefined),"inconclusive: 70.8 µM [inhibitor, single point]",
N=C1C(c2nc3ccccc3s2)=C(O)CN1NC(=O)c1c[nH]c2ccccc12,active: 12.6 µM,
Cc1ccccc1NC(=O)CN1C(=O)C(C)(C)c2ccccc21,inactive,
Cc1nn(CCC(=O)Nc2cccc(C#N)c2)c(C)c1S(=O)(=O)N1CCCCC1,,inconclusive: -42.7% [inhibitor]
COc1cccc(C(=O)Nc2nnc(S(=O)(=O)N3CCCc4ccccc43)s2)c1,inactive,
CCOC(=O)c1cc(-c2ccc(C)cc2)n(CCC(=O)NCCCOC)c1C,"inconclusive: 89.1 µM [inhibitor, single point]",
CC(C)Cc1ccc(CN2CCCC(NC(=O)CCN3CCCCC3=O)C2)cc1 (centres undefined),,inconclusive: -33.9% [inhibitor]
N#CC1=C(N)C2=C(N3CCCCC3)CCCC2C1(C#N)C#N (centres undefined),inactive,
CCn1c(=O)c(=O)[nH]c2cc(C(=O)N3CCN(c4ccccc4F)CC3)ccc21,"inconclusive: 15.8 µM [inhibitor, full curve]",
O=C1c2cccc3c(O)ccc(c23)C(=O)N1Cc1ccco1,"inconclusive: 35.5 µM [inhibitor, partial curve]",
Cc1ccc(C)n1-c1ccc(C(=O)N2CCC(C(N)=O)CC2)cc1,"inconclusive: 0.112 µM [inhibitor, full curve, poor fit]",
Cc1nc(C(=O)Nc2ccccc2Cl)cc2c1[nH]c1ccccc12,"inconclusive: 8.91 µM [inhibitor, full curve, poor fit]",
COc1ccc(C)cc1S(=O)(=O)N1CCCC(C(=O)N2CCN(c3ccccc3)CC2)C1 (centres undefined),"inconclusive: 1.41 µM [inhibitor, full curve]",
COc1ccc(/C=c2\s/c(=C\C(=O)C(C)(C)C)[nH]c2=O)cc1O,inactive,
Cc1onc(-c2c(Cl)cccc2Cl)c1C(=O)N1CCSCC1,inactive,
C=CCc1ccccc1OCCSc1nc(-c2ccccc2F)nc2cc(=O)[nH]n12,active: 10 µM,
O=C(O)c1ccc(Cl)c(NC(=S)NC(=O)c2cccc(COc3ccccc3)c2)c1,active: 25.1 µM,
CSc1ccc(CCNC(=O)c2ccc(-n3c(C)cc4c3CCC(C)C4)cc2)cc1 (centres undefined),"inconclusive: 10 µM [inhibitor, partial curve, poor fit]",
C/C(=N\O)C(C)(C)Nc1ccc(Br)cc1,"inconclusive: 7.94 µM [inhibitor, full curve]",
Cc1cc(C)cc(NC(=O)CCn2cnc3ccccc3c2=O)c1,"inconclusive: 39.8 µM [inhibitor, single point]",
CCN(CC)C(=O)CSc1nnc2c3ccccc3n(C)c2n1,"inconclusive: 100 µM [inhibitor, single point]",
CCCc1nnc(SCc2cc(=O)c3c(C)cc(C)cc3[nH]2)n1C,inactive,
COc1ccc(-c2csc(Nc3ccc(S(=O)(=O)Nc4cc(C)on4)cc3)n2)cc1C,"inconclusive: 39.8 µM [inhibitor, single point]",

# 19 neighbouring entries out of the list so far:
SMILES,Potency,"activity change, negative = inhibition"
Cc1ccccc1NC(=O)CN1C(=O)C(C)(C)c2ccccc21,inactive,
Cc1nn(CCC(=O)Nc2cccc(C#N)c2)c(C)c1S(=O)(=O)N1CCCCC1,,inconclusive: -42.7% [inhibitor]
COc1cccc(C(=O)Nc2nnc(S(=O)(=O)N3CCCc4ccccc43)s2)c1,inactive,
CCOC(=O)c1cc(-c2ccc(C)cc2)n(CCC(=O)NCCCOC)c1C,"inconclusive: 89.1 µM [inhibitor, single point]",
CC(C)Cc1ccc(CN2CCCC(NC(=O)CCN3CCCCC3=O)C2)cc1 (centres undefined),,inconclusive: -33.9% [inhibitor]
N#CC1=C(N)C2=C(N3CCCCC3)CCCC2C1(C#N)C#N (centres undefined),inactive,
CCn1c(=O)c(=O)[nH]c2cc(C(=O)N3CCN(c4ccccc4F)CC3)ccc21,"inconclusive: 15.8 µM [inhibitor, full curve]",
O=C1c2cccc3c(O)ccc(c23)C(=O)N1Cc1ccco1,"inconclusive: 35.5 µM [inhibitor, partial curve]",
Cc1ccc(C)n1-c1ccc(C(=O)N2CCC(C(N)=O)CC2)cc1,"inconclusive: 0.112 µM [inhibitor, full curve, poor fit]",
Cc1nc(C(=O)Nc2ccccc2Cl)cc2c1[nH]c1ccccc12,"inconclusive: 8.91 µM [inhibitor, full curve, poor fit]",
COc1ccc(C)cc1S(=O)(=O)N1CCCC(C(=O)N2CCN(c3ccccc3)CC2)C1 (centres undefined),"inconclusive: 1.41 µM [inhibitor, full curve]",
COc1ccc(/C=c2\s/c(=C\C(=O)C(C)(C)C)[nH]c2=O)cc1O,inactive,
Cc1onc(-c2c(Cl)cccc2Cl)c1C(=O)N1CCSCC1,inactive,
C=CCc1ccccc1OCCSc1nc(-c2ccccc2F)nc2cc(=O)[nH]n12,active: 10 µM,
O=C(O)c1ccc(Cl)c(NC(=S)NC(=O)c2cccc(COc3ccccc3)c2)c1,active: 25.1 µM,
CSc1ccc(CCNC(=O)c2ccc(-n3c(C)cc4c3CCC(C)C4)cc2)cc1 (centres undefined),"inconclusive: 10 µM [inhibitor, partial curve, poor fit]",
C/C(=N\O)C(C)(C)Nc1ccc(Br)cc1,"inconclusive: 7.94 µM [inhibitor, full curve]",
Cc1cc(C)cc(NC(=O)CCn2cnc3ccccc3c2=O)c1,"inconclusive: 39.8 µM [inhibitor, single point]",
CCN(CC)C(=O)CSc1nnc2c3ccccc3n(C)c2n1,"inconclusive: 100 µM [inhibitor, single point]",

# The list continues.

SMILES,Potency,"activity change, negative = inhibition"
O=C(CSc1ccsc1[N+](=O)[O-])NCCc1ccccc1,"inconclusive: 70.8 µM [inhibitor, partial curve]",
Cc1cccc(NC(=O)CN2C(=O)N/C(=C\c3cccn3-c3cccc(C(=O)O)c3)C2=O)c1,active: 14.1 µM,
CS(=O)(=O)C1=NSC2=NC(=O)/C(=C\c3ccc(OC(=O)c4ccco4)cc3)C(=N)N21,,inconclusive: -30.8% [inhibitor]
C/C(=N\NC(=O)c1cc(-c2ccc(Cl)s2)[nH]n1)c1ccncc1,"inconclusive: 11.2 µM [inhibitor, full curve, poor fit]",
COc1ccc(-c2ccc(C)cc2)cc1[C@H]1[C@H]2C=CC[C@@H](C)[C@@H]2C(=O)N1Cc1ccccc1,"inconclusive: 0.141 µM [inhibitor, full curve, poor fit]",
CC(=O)Nc1ccc(NC(=O)C2CC(=O)N(c3ccc(Cl)cc3)C2)cc1 (centres undefined),"inconclusive: 4.47 µM [inhibitor, partial curve, poor fit]",
O=C(c1ccco1)N1CCN(c2nc3ccccc3c(=O)n2-c2ccccc2)CC1,inactive,
Cc1cc(Nc2ccc([N+](=O)[O-])cc2)c2ccccc2n1,"inconclusive: 28.2 µM [inhibitor, partial curve]",
CCc1ccc(O)c(N=Cc2ccccc2O)c1,inactive,
COc1cccc(C2C(C(=O)Nc3nc4ccccc4s3)=C(C)NC3=C2C(=O)CC(C)(C)C3)c1OC (centres undefined),inactive,
Cc1ccc(C)c(NC(=O)c2nc(S(=O)(=O)Cc3ccc(F)cc3)ncc2Cl)c1,active: 31.6 µM,
CSCCC(NS(=O)(=O)c1ccc2c(c1)oc(=O)n2C)C(=O)NCc1ccc(Cl)cc1 (centres undefined),inactive,
Cc1ccc(C(=O)Nc2cc(-c3cn4cccnc4n3)ccc2C)cc1C,"inconclusive: 14.1 µM [inhibitor, full curve]",
O=C(Nc1ncn[nH]1)c1ccccc1O,"inconclusive: 63.1 µM [inhibitor, single point]",
Cn1cnnc1SCC(=O)Nc1cccc(S(=O)(=O)N2CCOCC2)c1,"inconclusive: 39.8 µM [inhibitor, single point]",
COc1ccc(CCn2c(SCC(=O)Nc3cc(C)on3)nc3ccsc3c2=O)cc1OC,"inconclusive: 15.8 µM [inhibitor, full curve, poor fit]",
Cc1ccc(-c2nn(-c3ccccc3)cc2/C=N/n2c(-c3ccncc3)n[nH]c2=S)cc1,"inconclusive: 0.0891 µM [inhibitor, full curve]",
Cc1ccc(CNc2cc(C)nc3nc(-c4ccc(C)cc4)nn23)cc1,inactive,
CC1C(=O)OC(c2ccc(Br)cc2)C(C)(C)C1=O (centres undefined),"inconclusive: 35.5 µM [inhibitor, single point]",
CC(CC(=O)Nc1ccc(F)cc1)S(=O)(=O)c1cc2c3c(c1)CCN3C(=O)CC2 (centres undefined),inactive,
C=CCc1cccc(/C=C/c2cc(=O)c3ccccc3[nH]2)c1O,active: 39.8 µM,
COc1ccc(/C=C2\SC(=O)N(CCC(=O)Nc3ccc(S(=O)(=O)Nc4nccs4)cc3)C2=O)cc1,active: 50.1 µM,
CCc1ccc(NC(=O)CSc2nc(-c3ccc(C)cc3)nc3c2Cc2c(CO)cnc(C)c2O3)cc1,active: 50.1 µM,

SMILES,Potency,"activity change, negative = inhibition"
CCOC(=O)c1cc(-c2ccc(F)cc2)n(CCC(=O)NC2CCC(C)CC2)c1C (centres undefined),"inconclusive: 3.16 µM [inhibitor, full curve, poor fit]",
Cc1cccc(N(Cc2cc(=O)[nH]c3ccccc23)C(=O)CCl)c1,"inconclusive: 79.4 µM [inhibitor, single point]",
Cc1ccnc(SCC(=O)Nc2sccc2C#N)n1,active: 31.6 µM,
COc1ccc2c(c1OC)C(=O)NC(C)=C(C(=O)OC(C)(C)C)C2O (centres undefined),"inconclusive: 10 µM [inhibitor, partial curve]",
OCCCNc1cc(-c2ccnc(Nc3cccc(Cl)c3)n2)ccn1,inactive,
CCCCc1ccc(S(=O)(=O)Nc2ccc(C)c(NS(C)(=O)=O)c2)cc1,"inconclusive: 3.98 µM [inhibitor, full curve]",
Cc1ccc2[nH]c3c(N4CCN(Cc5ccc6c(c5)OCO6)CC4)ncnc3c2c1,"inconclusive: 56.2 µM [inhibitor, partial curve, poor fit]",
Cc1c(OCC(=O)NC(Cc2ccc(Cl)cc2)C(=O)O)ccc2c3c(c(=O)oc12)CCC3 (centres undefined),inactive,
COc1ccc(S(=O)(=O)NCc2cccn2Cc2cc(C)ccc2C)cc1OC,inactive,
CSCC[C@H](NC(=O)[C@@H]1Cc2ccccc2CN1)C(=O)Nc1ccc2c(c1)OCCO2,inactive,
CCc1ccc(-c2nc3cc(NC(=O)c4ccc(C)c(C)c4)ccc3o2)cc1,"inconclusive: 50.1 µM [inhibitor, partial curve, poor fit]",
N#C/C(=C\c1ccc(N2CCOCC2)o1)c1nc2ccccc2[nH]1,"inconclusive: 56.2 µM [inhibitor, partial curve, poor fit]",
Clc1ccccc1CSc1nnc(-c2ccccn2)n1Cc1ccco1,"inconclusive: 2.51 µM [inhibitor, partial curve, poor fit]",
Cc1cc(Br)ccc1NC(=O)CSc1c2c(nc3ccccc13)CCC2,"inconclusive: 25.1 µM [inhibitor, partial curve]",
C=CCN(CC=C)C(=O)c1cccc(OC2CCN(S(=O)(=O)N(C)C)CC2)c1,"inconclusive: 79.4 µM [inhibitor, single point]",
CC[n+]1c(/C=C2\Sc3ccccc3N2C)ccc2cccc(C)c21,active: 28.2 µM,
COc1ccc(/C(N)=N/OC(=O)C2CCC(=O)N2S(=O)(=O)c2ccc(C)cc2)cc1 (centres undefined),inactive,
O=C1CC(=O)N(CCNc2ncc(C(F)(F)F)cc2Cl)C(=O)N1,active: 56.2 µM,
COc1ccc(C/C(C)=N\NC(=O)c2cn(C)c3ccccc23)cc1OC,"inconclusive: 70.8 µM [inhibitor, single point]",
CC1=C(C#N)C(=O)NC(=O)/C1=C/c1ccc(-c2ccc(S(N)(=O)=O)cc2)o1,"inconclusive: 50.1 µM [inhibitor, partial curve, poor fit]",
Cc1ccc(NC(=O)CCNC(=O)c2ccc(Cl)cc2)cc1F,"inconclusive: 0.316 µM [inhibitor, single point]",
O=C(NC1CCCCC1)N1CCc2ccccc2C1,"inconclusive: 89.1 µM [inhibitor, single point]",
CCN(CC)CCCNc1nc(-c2ccccc2)nc2ccccc12,"inconclusive: 89.1 µM [inhibitor, single point]",
